Drawing on paper doi:10.1101/2024.01.16.575949, this text covers binding for 4 molecules.

In assay [1] the target is T1, Halo-FAM60A (full length) (UniProt Q9NP50).
T1 sequence: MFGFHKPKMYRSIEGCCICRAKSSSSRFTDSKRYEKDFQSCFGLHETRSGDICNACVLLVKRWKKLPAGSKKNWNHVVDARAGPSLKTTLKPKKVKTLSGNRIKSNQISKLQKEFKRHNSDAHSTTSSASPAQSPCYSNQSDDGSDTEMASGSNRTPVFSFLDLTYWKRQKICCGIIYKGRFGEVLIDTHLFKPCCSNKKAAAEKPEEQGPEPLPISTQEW
The experiment in a line: cross-linking.

For assay [2], the target named is T2, SIN3A (endogenous) (human (endogenous in HEK293)) (UniProt Q96ST3).
T2 sequence: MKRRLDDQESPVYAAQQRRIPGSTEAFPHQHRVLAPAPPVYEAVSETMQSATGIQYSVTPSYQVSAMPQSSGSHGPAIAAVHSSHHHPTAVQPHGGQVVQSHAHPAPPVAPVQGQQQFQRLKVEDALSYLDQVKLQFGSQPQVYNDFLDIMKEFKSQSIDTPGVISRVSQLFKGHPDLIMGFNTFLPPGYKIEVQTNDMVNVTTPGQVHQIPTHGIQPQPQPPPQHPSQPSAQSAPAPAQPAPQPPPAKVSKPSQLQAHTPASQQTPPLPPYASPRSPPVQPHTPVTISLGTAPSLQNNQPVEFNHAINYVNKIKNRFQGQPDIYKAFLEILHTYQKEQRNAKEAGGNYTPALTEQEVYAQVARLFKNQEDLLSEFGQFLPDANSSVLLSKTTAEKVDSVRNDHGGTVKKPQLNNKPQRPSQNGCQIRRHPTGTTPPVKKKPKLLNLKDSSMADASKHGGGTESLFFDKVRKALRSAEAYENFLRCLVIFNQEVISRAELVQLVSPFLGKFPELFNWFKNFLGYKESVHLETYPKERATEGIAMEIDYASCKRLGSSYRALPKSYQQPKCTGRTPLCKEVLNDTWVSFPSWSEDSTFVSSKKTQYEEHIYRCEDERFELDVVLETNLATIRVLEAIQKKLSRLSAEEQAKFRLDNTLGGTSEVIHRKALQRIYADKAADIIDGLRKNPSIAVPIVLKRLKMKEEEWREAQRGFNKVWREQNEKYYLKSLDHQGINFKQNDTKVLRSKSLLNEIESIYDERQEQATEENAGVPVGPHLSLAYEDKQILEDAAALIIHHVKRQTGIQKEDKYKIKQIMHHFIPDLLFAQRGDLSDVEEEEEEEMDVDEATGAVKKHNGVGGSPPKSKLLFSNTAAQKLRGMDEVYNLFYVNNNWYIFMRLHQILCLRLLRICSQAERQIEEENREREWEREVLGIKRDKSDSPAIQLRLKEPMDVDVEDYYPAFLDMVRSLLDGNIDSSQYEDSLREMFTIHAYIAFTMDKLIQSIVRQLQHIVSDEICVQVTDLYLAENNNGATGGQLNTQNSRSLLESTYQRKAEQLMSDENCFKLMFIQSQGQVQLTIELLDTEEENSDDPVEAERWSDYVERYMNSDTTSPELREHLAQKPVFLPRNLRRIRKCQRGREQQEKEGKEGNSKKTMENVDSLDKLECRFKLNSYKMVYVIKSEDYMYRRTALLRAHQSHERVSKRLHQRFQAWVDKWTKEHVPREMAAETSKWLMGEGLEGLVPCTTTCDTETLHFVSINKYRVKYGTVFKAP
In words: cross-linking.

Assay [3] has as its target T3, Halo-SIN3A (UniProt Q96ST3).
T3 sequence: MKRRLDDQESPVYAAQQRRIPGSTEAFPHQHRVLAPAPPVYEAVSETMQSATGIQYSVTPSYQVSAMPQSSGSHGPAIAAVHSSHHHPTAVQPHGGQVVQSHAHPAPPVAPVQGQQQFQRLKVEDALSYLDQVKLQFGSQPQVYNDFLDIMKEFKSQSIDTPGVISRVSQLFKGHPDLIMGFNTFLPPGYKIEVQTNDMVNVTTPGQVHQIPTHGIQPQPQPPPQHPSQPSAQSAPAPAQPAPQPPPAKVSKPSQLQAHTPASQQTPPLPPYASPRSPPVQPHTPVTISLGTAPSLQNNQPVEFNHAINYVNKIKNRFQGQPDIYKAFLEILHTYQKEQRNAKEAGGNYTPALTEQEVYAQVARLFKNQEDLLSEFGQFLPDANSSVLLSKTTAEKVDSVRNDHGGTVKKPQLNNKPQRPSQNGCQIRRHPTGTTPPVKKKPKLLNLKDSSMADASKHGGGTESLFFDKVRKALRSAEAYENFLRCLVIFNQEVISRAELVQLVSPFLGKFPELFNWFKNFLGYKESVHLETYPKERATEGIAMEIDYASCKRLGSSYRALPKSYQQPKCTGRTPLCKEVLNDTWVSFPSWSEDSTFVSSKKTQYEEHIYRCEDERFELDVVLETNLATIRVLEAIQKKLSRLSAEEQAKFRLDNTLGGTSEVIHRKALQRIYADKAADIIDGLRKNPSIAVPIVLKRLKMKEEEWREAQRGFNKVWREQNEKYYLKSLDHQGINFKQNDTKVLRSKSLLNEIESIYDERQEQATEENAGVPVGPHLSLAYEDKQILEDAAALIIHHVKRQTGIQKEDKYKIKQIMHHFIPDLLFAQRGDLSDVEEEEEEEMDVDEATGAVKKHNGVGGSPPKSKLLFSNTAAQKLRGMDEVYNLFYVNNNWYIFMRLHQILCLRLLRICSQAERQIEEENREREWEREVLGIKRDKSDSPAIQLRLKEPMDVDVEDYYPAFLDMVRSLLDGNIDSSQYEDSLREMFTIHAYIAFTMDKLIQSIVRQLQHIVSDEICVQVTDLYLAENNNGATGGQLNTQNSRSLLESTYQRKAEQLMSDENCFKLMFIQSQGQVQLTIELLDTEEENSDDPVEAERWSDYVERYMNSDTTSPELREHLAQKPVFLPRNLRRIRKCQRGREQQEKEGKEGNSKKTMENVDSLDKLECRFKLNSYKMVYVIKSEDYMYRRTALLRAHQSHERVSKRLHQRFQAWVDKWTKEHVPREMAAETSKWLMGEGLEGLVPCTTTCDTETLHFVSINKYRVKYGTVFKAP
In words: pull-down.

The target in assay [4] is T1, Halo-FAM60A (full length). The experiment in a line: SEC. (SEC sorts molecules by how far they enter the pores of the column.)

Results are given in words; binding and its absence hold for the method and conditions named. For part of these data: In cells and extracts the contact can be indirect. Some entries that bind do so weakly or less than the wild type.

Take “HDAC1 (endogenous) (from UniProt Q13547 1-482) (enzyme)”: the binding entry in assay [1], in assay [2], in assay [3] and in assay [4] was “binds” in each case.

With “MeCP2 (methyl-CpG-binding protein 2) (from UniProt P51608 1-486)”, the binding entry in assay [1] is listed as “binds”.

B1: SAP30 (endogenous) (protein, UniProt O75446 1-220)
chain: MNGFTPDEMSRGGDAAAAVAAVVAAAAAAASAGNGTGAGTGAEVPGAGAVSAAGPPGAAGPGPGQLCCLREDGERCGRAAGNASFSKRIQKSISQKKVKIELDKSARHLYICDYHKNLIQSVRNRRKRKGSDDDGGDSPVQDIDTPEVDLYQLQVNTLRRYKRHFKLPTRPGLNKAQLVEIVGCHFRSIPVNEKDTLTYFIYSVKNDKNKSDLKVDSGVH
On to B1, for which the binding entry in assay [1] and in assay [2] was “binds” in each case.

B2: SUDS3 (endogenous) (protein, UniProt Q9H7L9 1-328)
chain: MSAAGLLAPAPAQAGAPPAPEYYPEEDEELESAEDDERSCRGRESDEDTEDASETDLAKHDEEDYVEMKEQMYQDKLASLKRQLQQLQEGTLQEYQKRMKKLDQQYKERIRNAELFLQLETEQVERNYIKEKKAAVKEFEDKKVELKENLIAELEEKKKMIENEKLTMELTGDSMEVKPIMTRKLRRRPNDPVPIPDKRRKPAPAQLNYLLTDEQIMEDLRTLNKLKSPKRPASPSSPEHLPATPAESPAQRFEARIEDGKLYYDKRWYHKSQAIYLESKDNQKLSCVISSVGANEIWVRKTSDSTKMRIYLGQLQRGLFVIRRRSAA
In the case of B2, the binding entry in assay [3] and in assay [4] was “binds” in each case.
